# In PubChem BioAssay AID504847 (National Center for Advancing Translational Sciences (NCATS), 2011):
# Amino acid sequences for entries named in this document (tags omitted). A change or cut given only in a name is not applied to a line headed by its entry.
# UniProt P11473: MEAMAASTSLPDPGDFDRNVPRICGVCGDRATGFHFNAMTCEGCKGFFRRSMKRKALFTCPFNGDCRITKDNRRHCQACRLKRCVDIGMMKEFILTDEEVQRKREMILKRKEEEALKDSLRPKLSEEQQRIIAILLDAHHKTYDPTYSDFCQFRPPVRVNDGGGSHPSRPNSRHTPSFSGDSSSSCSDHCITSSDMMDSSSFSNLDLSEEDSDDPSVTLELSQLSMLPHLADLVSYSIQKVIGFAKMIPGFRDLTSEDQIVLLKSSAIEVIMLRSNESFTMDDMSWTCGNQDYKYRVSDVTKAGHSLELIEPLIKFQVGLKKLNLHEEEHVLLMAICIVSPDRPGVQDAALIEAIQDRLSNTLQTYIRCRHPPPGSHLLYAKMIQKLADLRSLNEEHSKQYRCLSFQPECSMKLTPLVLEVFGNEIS
# Hit rate of the full screen: of about 400,000 compounds, about 3,700 (0.93%) were called active. The shares of active, inactive and inconclusive entries below differ from those in the screen. Calls follow the shape of the dose curve; as a rule, active = well fitted inhibition curve with a large enough effect; inconclusive = small, poorly fitted or top-dose-only effect, or another doubt; inactive = no such curve, though single readings can be large or run the other way. Where the call is inconclusive, the potency comes from a doubtful curve fit. Where a structure was tested more than once in an assay, its records may differ in their call.
# Molecular target: Vitamin D3 receptor (Homo sapiens) (UniProt P11473)
# Assay: Inhibitors of the vitamin D receptor (VDR): qHTS
# Conditions: VDR-SRC2-3 peptide fluorescence polarization, 2 h; max response, negative = inhibition: stronger effect = lower value
# In short: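 After 23 nl compound addition and a short centrifugation, plates sat for 2 hours at ambient temperature; polarization of fluorescence then indicated loss of VDR binding to peptide SRC2-3.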
# % is scaled to controls: 0 for no effect and ±100 for the full control effect; potency is read from the fitted curve at half-maximal effect.
Compound,Potency,"max response, negative = inhibition"
O=C(O)Cc1c[nH]c2ccc(O)cc12,active: 50.1 µM,–
H-CRKQAASIKVAVS-OH,"inconclusive: 50.1 µM [inhibitor, partial curve, poor fit]",–
O=C1C=C(c2ccccc2)C(c2ccccc2)C1O (stereo unspecified),"inconclusive: 70.8 µM [inhibitor, partial curve]",–
Oc1ccc(CN2CCN(Cc3ccccc3)CC2)c2cccnc12,–,inactive: 21.9%
Cc1nnc(NC(=O)C2c3ccccc3Oc3ccccc32)s1,"inconclusive: 56.2 µM [inhibitor, partial curve, poor fit]",–
CC1CCC2(CC1)NC(=O)N(CC(=O)Nc1ccc(F)cc1)C2=O (stereo unspecified),"inconclusive: 89.1 µM [inhibitor, single point]",–
O=C(c1ccc(-c2ccc([N+](=O)[O-])cc2)o1)N1CCCCC1,"inconclusive: 79.4 µM [inhibitor, single point]",–
CN(C)CCN1C(=O)C(=O)/C(=C(/O)c2ccc(S(=O)(=O)N3CCOCC3)cc2)C1c1ccc(F)cc1 (stereo unspecified),–,inactive: -5.04%
CC(c1ccccc1)N1CC(C(=O)Nc2ccc(F)cc2)CC1=O (stereo unspecified),"inconclusive: 39.8 µM [inhibitor, partial curve, poor fit]",–
COc1ccc(OC)c(/C=C2\SC(=S)N(C(C(=O)O)c3ccccc3)C2=O)c1 (stereo unspecified),"inconclusive: 79.4 µM [inhibitor, partial curve, poor fit]",–
Cc1ccc(C(CC(=O)NCC2(c3ccccc3)CCCC2)c2ccccc2)c(O)c1 (stereo unspecified),"inconclusive: 31.6 µM [inhibitor, partial curve, poor fit]",–
C=C1C(=O)C23C(O)C1CCC2[C@]12COC3(O)C(O)C1C(C)(C)CC[C@H]2O (stereo partly specified),active: 14.1 µM,–
COc1ccc(N(C(=O)c2snc(C(N)=O)c2N)C(C(=O)NC2CCCC2)c2ccc(F)cc2)c(OC)c1 (stereo unspecified),"inconclusive: 79.4 µM [inhibitor, partial curve, poor fit]",–
O=C1CC(c2ccc3c(c2)OCO3)c2cc(O)ccc2O1 (stereo unspecified),"inconclusive: 100 µM [inhibitor, partial curve]",–
Cc1cccc(NC(=O)CSc2nc3c([nH]c4ccccc43)c(=O)n2-c2ccc(F)cc2)c1C,–,inactive: 6.06%
COc1ccc(NC(=O)c2ccco2)cc1NC(=O)COc1ccccc1Cl,–,inactive: -2.82%
CCN(CC(=O)Nc1cc(Cl)ccc1C)C(=O)CCS(=O)(=O)c1ccc(Cl)cc1,"inconclusive: 79.4 µM [inhibitor, single point]",–
CCN(CC)c1ccc(NC(=O)c2ccc(=O)[nH]c2)cc1S(=O)(=O)Nc1ccccc1OC,active: 31.6 µM,–
O=C(O)c1cccc(Cn2c(Cl)c(/C=N/NC(=O)c3cc4ccccc4cc3O)sc2=O)c1,"inconclusive: 100 µM [inhibitor, partial curve, poor fit]",–
CC(C)Nc1cccnc1N1CCN(C(=O)c2cc3cc(NS(C)(=O)=O)ccc3[nH]2)CC1,"inconclusive: 56.2 µM [inhibitor, single point]",–
O=C(O)c1ccc(N2C(=O)CC(N3C(=O)/C(=C/c4ccc(Cl)cc4)SC3=S)C2=O)cc1 (stereo unspecified),"inconclusive: 89.1 µM [inhibitor, partial curve, poor fit]",–
COC(=O)Cc1ccc(N(Cc2ccccc2F)S(=O)(=O)c2ccc(C)cc2)cc1,–,inactive: 2.21%

Compound,Potency,"max response, negative = inhibition"
CC(=O)Nc1ccc(N=Nc2ccccc2)cc1[N+](=O)[O-],"inconclusive: 79.4 µM [inhibitor, partial curve, poor fit]",–
O=C(CCNc1ccc(Cc2ccncc2)cc1)c1ccc([N+](=O)[O-])cc1,"inconclusive: 79.4 µM [inhibitor, partial curve]",–
COc1cc(OC)cc(C(=O)Nc2ccc(S(=O)(=O)Nc3onc(C)c3C)cc2)c1,"inconclusive: 70.8 µM [inhibitor, partial curve]",–
CN(Cc1cn(-c2ccccc2)nc1-c1cc2ccccc2o1)C(=O)CCC(=O)O,active: 79.4 µM,–
COc1cccc(CNC(=O)CN2C(=O)CCn3nc(-c4cn(C)c5ccccc45)cc32)c1OC,–,inactive: 17.3%
O=C(O)c1ccccc1C(=O)c1ccc(N2CCCC2)c([N+](=O)[O-])c1,–,inactive: 4.18%
Cc1ccc(C)c(S(=O)(=O)N2CCN(C(=O)CSc3ccccc3)CC2)c1,"inconclusive: 89.1 µM [inhibitor, single point]",–
CCOc1ccc(C2C(C(=O)c3cccs3)=C(O)C(=O)N2Cc2cccnc2)cc1OC (stereo unspecified),"inconclusive: 89.1 µM [inhibitor, single point]",–
O=C(/C=C/c1cccnc1)c1ccccc1O,"inconclusive: 89.1 µM [inhibitor, single point]",–
C#CC(=O)CCC1CCCN1C(=O)OC(C)(C)C (stereo unspecified),"inconclusive: 39.8 µM [inhibitor, full curve]",–
Cc1cc(Cl)ccc1OCC(=O)Nc1ccccc1NS(=O)(=O)c1cccs1,"inconclusive: 89.1 µM [inhibitor, partial curve, poor fit]",–
CSc1nncc(/C(C)=N\Nc2ccccc2C)n1,–,inactive: -16.4%
COc1ccccc1CNc1nc(-c2ccoc2)nc2ccccc12,"inconclusive: 28.2 µM [inhibitor, full curve]",–
CCOc1ccccc1NC(=O)CCNS(=O)(=O)c1ccc2c(c1)CCN2C(=O)C1CC1,–,inactive: 4.27%
CC(=O)Nc1ccc(S(=O)(=O)N(C#N)c2nc(C)cc(C)n2)cc1,"inconclusive: 56.2 µM [inhibitor, partial curve, poor fit]",–
CCN(C[C@H]1N[C@@](CC)(C(=O)OC)[C@H]2C(=O)N(Cc3ccccc3)C(=O)[C@@H]12)C(=O)Nc1ccc(C)cc1,–,inactive: 8.86%
O=C(Cc1ccc(NC(=O)C2CCCN(C(=O)C3CCC3)C2)cc1)Nc1cccc(C(=O)N2CCCC2)c1 (stereo unspecified),"inconclusive: 63.1 µM [inhibitor, partial curve, poor fit]",–
CCOCCCNC(=O)c1c[nH]c2ccc(OCC)cc2c1=O,"inconclusive: 28.2 µM [inhibitor, partial curve]",–
N#Cc1cccc(-c2nc(NCc3ccccc3)c3ccccc3n2)c1,active: 44.7 µM,–
Cc1ccc(OCCCC(=O)Nc2sc3c(c2C(N)=O)CCCC3)cc1,"inconclusive: 100 µM [inhibitor, single point]",–
COc1cccc(Nc2ncnc3onc(-c4ccccc4OC)c23)c1,–,inactive: -0.366%
CN(C)NC(=S)NC1CCS(=O)(=O)C1 (stereo unspecified),–,inactive: 18%

# Taken from above (6 entries):
Compound,Potency,"max response, negative = inhibition"
COc1cccc(CNC(=O)CN2C(=O)CCn3nc(-c4cn(C)c5ccccc45)cc32)c1OC,–,inactive: 17.3%
O=C(O)c1ccccc1C(=O)c1ccc(N2CCCC2)c([N+](=O)[O-])c1,–,inactive: 4.18%
Cc1ccc(C)c(S(=O)(=O)N2CCN(C(=O)CSc3ccccc3)CC2)c1,"inconclusive: 89.1 µM [inhibitor, single point]",–
CCOc1ccc(C2C(C(=O)c3cccs3)=C(O)C(=O)N2Cc2cccnc2)cc1OC (stereo unspecified),"inconclusive: 89.1 µM [inhibitor, single point]",–
O=C(/C=C/c1cccnc1)c1ccccc1O,"inconclusive: 89.1 µM [inhibitor, single point]",–
C#CC(=O)CCC1CCCN1C(=O)OC(C)(C)C (stereo unspecified),"inconclusive: 39.8 µM [inhibitor, full curve]",–

# Continued:

Compound,Potency,"max response, negative = inhibition"
CC1COCC(C)N1C1=C(Cl)C(=O)c2ccccc2C1=O (stereo unspecified),"inconclusive: 56.2 µM [inhibitor, partial curve, poor fit]",–
CCOC(=O)c1cc(-c2ccc(/C=C3/C(=O)N(c4ccc(C(=O)O)cc4)N=C3C)o2)ccc1Cl,"inconclusive: 50.1 µM [inhibitor, partial curve, poor fit]",–
CCOc1cc(/C=C\c2[nH]c(=O)[nH]c(=O)c2[N+](=O)[O-])ccc1OC(C)CC (stereo unspecified),active: 11.2 µM,–
CC(NC(=O)c1ccc([N+](=O)[O-])o1)C12CC3CC(CC(C3)C1)C2 (stereo unspecified),"inconclusive: 89.1 µM [inhibitor, single point]",–
O=C(/C=C/c1ccc(O)cc1)c1ccccc1O,active: 5.62 µM,–
CC(C)CN(C(=O)CCNC(=O)c1ccc(Cl)cc1)C1CCS(=O)(=O)C1 (stereo unspecified),–,inactive: 6.31%
CC(NC1=CC(=O)c2cccnc2C1=O)C(O)c1ccccc1 (stereo unspecified),"inconclusive: 89.1 µM [inhibitor, single point]",–
COc1ccc(C=C(C#N)C#N)c(CSc2ccccn2)c1,"inconclusive: 63.1 µM [inhibitor, partial curve, poor fit]",–
Cc1ccc(CSCC(=O)N(C)CC(=O)Nc2ccccc2C(F)(F)F)cc1,"inconclusive: 89.1 µM [inhibitor, single point]",–
Cc1ccc(/C=C2\C(=O)NC(=O)N2C)o1,"inconclusive: 79.4 µM [inhibitor, partial curve]",–
O=C1/C(=C/c2ccncc2)Oc2cc(OS(=O)(=O)c3ccccc3)ccc21,"inconclusive: 44.7 µM [inhibitor, partial curve]",–
c1ccc(OCc2nn3c(Cn4nnc5ccccc54)nnc3s2)cc1,"inconclusive: 79.4 µM [inhibitor, partial curve, poor fit]",–
Cc1ccc(C(=O)NN2C(=O)c3ccc(S(=O)(=O)c4ccc(C(=O)O)cc4)cc3C2=O)cc1,active: 39.8 µM,–
C/C(=C(/CCO)SSCC1CCCO1)N(C=O)Cc1cnc(C)nc1N (stereo unspecified),active: 56.2 µM,–
OC1(c2ccc(F)cc2)CCN(Cc2cccnc2)CC1,"inconclusive: 70.8 µM [inhibitor, partial curve]",–
CN(Cc1ccco1)c1ccnc(-c2ccoc2)n1,active: 44.7 µM,–
CC(=O)NCCNc1ncncc1-c1ccccc1C(F)(F)F,"inconclusive: 50.1 µM [inhibitor, partial curve]",–
CC1SC(=S)N(c2ccc(N(C)C)cc2)C1=O (stereo unspecified),active: 31.6 µM,–
CN1C2CCC1/C(=C\c1ccc(F)cc1)C(=O)/C2=C/c1ccc(F)cc1,"inconclusive: 79.4 µM [inhibitor, partial curve, poor fit]",–
CCOCCN1CCN(c2c3c(nc4cc(-c5ccc(F)cc5)nn24)CCC3)CC1,"inconclusive: 8.91 µM [inhibitor, partial curve, poor fit]",–
CCC(C(=O)Nc1ccc2c(c1)OCCO2)n1c(=O)[nH]c2ccccc2c1=O (stereo unspecified),–,inactive: -12.7%
C[C@@]12CCC=C[C@H]1[C@H](c1ccc3ccccc3c1)N(Cc1ccccc1)C2=O,"inconclusive: 89.1 µM [inhibitor, single point]",–
